PubChem BioAssay AID1224828 | NIAID – 2016

Aim: 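Find genes required for NF-kappaB p65 moving into the nucleus after LPS in mouse macrophages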 (primary screen)
Cells: mouse RAW264.7 G9 macrophage reporter cells (GFP-p65, Tnf promoter-mCherry)
Knock-down reagent: siRNA pool against mouse genes, 100 nM
Time to read-out: 2 days siRNA transfection, then 40 min LPS before fixation
Conditions: LPS (Salmonella minnesota R595) at 10 ng/ml
Measurement: 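Imaged p65 nuclear translocation ratio, normalised to the plate median, converted to robust z-scores and averaged across two replicates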
Reading the numbers: p65 translocation robust z-score: higher = more nuclear NF-kappaB p65 after LPS than the plate median; nuclear/cytoplasmic p65 ratio: higher = more nuclear NF-kappaB p65
Rule for the call: 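Active if robust z is above 3.3 (negative regulators) or below -1.56, the Tlr4 control median (positive regulators); activity score 50 or more; control wells not called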
Calls: active = hit (p65 shift raised or lowered); inactive = no clear change
Shown is a random part of about 17,000 reagents. 762 of them (4.5%) count as active. 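Active calls include both raised and lowered p65 entry, mostly lowered; wells with fewer than 50 cells lack a z-score.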 Raw values are not corrected between plates. Unmarked entries are inactive. The numbers tell different reagents against one gene apart.

Target gene,pool no.,p65 translocation robust z-score,"nuclear/cytoplasmic p65 ratio, rep 1","nuclear/cytoplasmic p65 ratio, rep 2",low cell count flag
Ercc6l2,1,0.47,1.58,1.54,enough cells to score
Gga1,1,,1.37,1.48,fewer than 50 cells per well; well left out of scoring
Hemgn (hemogen),1,-0.31,1.6,1.51,enough cells to score
"Dgkg (diacylglycerol kinase, gamma)",1,0.36,1.67,1.43,enough cells to score
Cpsf4l (cleavage and polyadenylation specific factor 4-like),1,0.02,1.6,1.77,enough cells to score
Lpcat3 (lysophosphatidylcholine acyltransferase 3),1,-0.44,1.57,1.49,enough cells to score
Tatdn1 (TatD DNase domain containing 1),1,,1.59,1.25,fewer than 50 cells per well; well left out of scoring
"Acadsb (acyl-Coenzyme A dehydrogenase, short/branched chain)",1,0.36,1.75,1.6,enough cells to score
Slc52a2,1,-0.65,1.39,1.51,enough cells to score
"Ap4s1 (adaptor-related protein complex AP-4, sigma 1)",1,-0.65,1.44,1.48,enough cells to score
Rplp2 (ribosomal protein lateral stalk subunit P2),1,-0.7,1.33,1.13,enough cells to score
"Cyp4a12a (cytochrome P450, family 4, subfamily a, polypeptide 12a)",1,0.2,1.72,1.6,enough cells to score
Zbtb14 (zinc finger and BTB domain containing 14),1,0.01,1.53,1.49,enough cells to score
Ngb (neuroglobin),1,-0.34,1.55,1.7,enough cells to score
Inpp5f (inositol polyphosphate-5-phosphatase F),1,1.67,1.69,1.61,enough cells to score
"Crk (Crk proto-oncogene, adaptor protein)",1,-0.68,1.47,1.22,enough cells to score
Senp1 (SUMO1/sentrin specific peptidase 1),1,1.15,1.68,1.76,enough cells to score
Arc (activity regulated cytoskeletal-associated protein),1,-0.15,1.54,1.53,enough cells to score
Phf19 (PHD finger protein 19),1,,1.35,1.43,fewer than 50 cells per well; well left out of scoring
"Mkln1 (muskelin 1, intracellular mediator containing kelch motifs)",1,-2.03 (active),1.33,1.31,enough cells to score
Tmem106b (transmembrane protein 106B),1,,0.986,1.42,fewer than 50 cells per well; well left out of scoring
Sestd1 (SEC14 and spectrin domains 1),1,,1.37,1.36,fewer than 50 cells per well; well left out of scoring
Bzw2 (basic leucine zipper and W2 domains 2),1,3.7 (active),1.98,1.99,enough cells to score
Ctsc (cathepsin C),1,1.85,1.75,1.59,enough cells to score
Gnl3l (guanine nucleotide binding protein nucleolar 3 like),1,-0.78,1.44,1.74,enough cells to score
Fa2h (fatty acid 2-hydroxylase),1,0.99,1.7,1.63,enough cells to score
Tcf15 (transcription factor 15),1,-0.69,1.43,1.41,enough cells to score
Ndufaf4 (NADH:ubiquinone oxidoreductase complex assembly factor 4),1,-1.84 (active),1.24,1.12,enough cells to score
Prrt1 (proline-rich transmembrane protein 1),1,,1.03,1.09,fewer than 50 cells per well; well left out of scoring
Mmp11 (matrix metallopeptidase 11),1,0.93,1.53,1.5,enough cells to score
Abhd14b (abhydrolase domain containing 14b),1,0.82,1.63,1.39,enough cells to score
Lin54 (lin-54 DREAM MuvB core complex component),1,0.18,1.58,1.77,enough cells to score
Mgll (monoglyceride lipase),1,0.5,1.5,1.42,enough cells to score
Gzme (granzyme E),1,-0.79,1.45,1.5,enough cells to score
Ccn2 (cellular communication network factor 2),1,-0.56,1.41,1.3,enough cells to score
Prph (peripherin),1,,1.15,0.983,fewer than 50 cells per well; well left out of scoring
Pstpip2 (proline-serine-threonine phosphatase-interacting protein 2),1,-0.96,1.22,1.35,enough cells to score
Pstpip2 (proline-serine-threonine phosphatase-interacting protein 2),2,-0.48,1.5,1.29,enough cells to score
Or52m1 (olfactory receptor family 52 subfamily M member 1),1,,1.36,1.26,fewer than 50 cells per well; well left out of scoring
Sox2 (SRY (sex determining region Y)-box 2),1,-1.72 (active),1.36,1.25,enough cells to score
"Tas1r3 (taste receptor, type 1, member 3)",1,-0.57,1.47,1.46,enough cells to score
4930566N20Rik (RIKEN cDNA 4930566N20 gene),1,,1.34,1.39,fewer than 50 cells per well; well left out of scoring
Dot1l (DOT1 like histone lysine methyltransferase),1,,1.35,1.27,fewer than 50 cells per well; well left out of scoring
Lpar3 (lysophosphatidic acid receptor 3),1,,1.34,1.24,fewer than 50 cells per well; well left out of scoring
"Lama1 (laminin, alpha 1)",1,2.07,1.8,1.61,enough cells to score
Itsn2 (intersectin 2),1,0.19,1.57,1.59,enough cells to score
"Egfl6 (EGF-like-domain, multiple 6)",1,-0.14,1.42,1.38,enough cells to score
Adgrb1 (adhesion G protein-coupled receptor B1),1,0.54,1.58,1.66,enough cells to score
Klf13 (Kruppel-like transcription factor 13),1,0.43,1.49,1.48,enough cells to score
"Eno1 (enolase 1, alpha non-neuron)",1,-0.63,1.21,1.44,enough cells to score
Slc35h1,1,,1.17,1.33,fewer than 50 cells per well; well left out of scoring
"Ugt2b38 (UDP glucuronosyltransferase 2 family, polypeptide B38)",1,1.96,1.61,1.9,enough cells to score
Ube3b (ubiquitin protein ligase E3B),1,0.26,1.62,1.48,enough cells to score
"Ppp1r16a (protein phosphatase 1, regulatory subunit 16A)",1,0.36,1.61,1.4,enough cells to score
Ndor1 (NADPH dependent diflavin oxidoreductase 1),1,-1.85 (active),1.51,1.29,enough cells to score
1700020M10Rik (RIKEN cDNA 1700020M10 gene),1,,1.31,1.15,fewer than 50 cells per well; well left out of scoring
Brd2 (bromodomain containing 2),1,0.19,1.51,1.41,enough cells to score
Ptk2 (PTK2 protein tyrosine kinase 2),1,0.36,1.96,1.42,enough cells to score
Asic5 (acid-sensing ion channel family member 5),1,-0.01,1.55,1.74,enough cells to score
